These results are taken from PubChem BioAssay AID272 (DTP/NCI, 2004).

The assay deals with Lewis lung carcinoma i.m., BDF1 mice, T/C %. The assay can be described thus: NCI In Vivo Anticancer Drug Screen. Data for tumor model Lewis Lung Carcinoma (intramuscular) in B6D2F1 (BDF1) mice. Conditions: vehicle: saline. The procedure:
The antitumor activity of compounds was measured in mice bearing transplantable tumors. Survival or tumor size were measured and the results are expressed as the measurement made in the treated group (T) divided by the measurement made in the vehicle treated control group (C). The tumor model used in this assay is Lewis Lung Carcinoma (intramuscular) in B6D2F1 (BDF1) mice

The list shows only some results of the screen, not a fair sample: it gathers some chemical classes. Not every dose and run of a compound is shown. T/C is the treated group as % of the vehicle group. Some T/C values are marked as having no survivor count here; that says nothing about deaths at the dose. Schedule codes are those of the source, read here as Q, the interval in days (D) or hours (H), X, the number of doses. Where survival is the endpoint, the PubChem record calls one and a half times the control and up active, and a quarter to a half above the control has no call in these data; cut-offs in other NCI protocols can differ. Some doses were run more than once; their values stand side by side, smallest first.

In the case of `CC(C(=O)O)N(CCCl)CCCl` (configuration not stated), the T/C is 62 % of control [survivor count not shown] (T/C endpoint: mean tumor weight, dose: 1.12 mg/kg/injection, schedule: Q01DX011 (ip), evaluation day not shown, higher T/C = larger tumour); 57 % of control [survivor count not shown] (T/C endpoint: mean tumor weight, dose: 2.25 mg/kg/injection, schedule: Q01DX011 (ip), evaluation day not shown, higher T/C = larger tumour); 47 % of control [survivor count not shown] (T/C endpoint: mean tumor weight, dose: 4.5 mg/kg/injection, schedule: Q01DX011 (ip), evaluation day not shown, higher T/C = larger tumour); 102 [survivor count not shown] and 110 % of control [survivor count not shown] (T/C endpoint: median survival time, dose: 1.12 mg/kg/injection, schedule: Q01DX011 (ip), higher T/C = longer survival); 90 [survivor count not shown] and 105 % of control [survivor count not shown] (T/C endpoint: median survival time, dose: 2.25 mg/kg/injection, schedule: Q01DX011 (ip), higher T/C = longer survival); 132 % of control [survivor count not shown] (T/C endpoint: median survival time, dose: 4.5 mg/kg/injection, schedule: Q01DX011 (ip), higher T/C = longer survival).

On to `NC1CCCCC1.NP(=O)(O)N(CCCl)CCCl`, for which the T/C by setting is: (T/C endpoint: mean tumor weight (est.), dose: 25.0 mg/kg/injection, schedule: Q04DX003 (ip), evaluation day not shown, higher T/C = larger tumour) 62 % of control [survivor count not shown]; (T/C endpoint: mean tumor weight (est.), dose: 50.0 mg/kg/injection, schedule: Q04DX003 (ip), evaluation day not shown, higher T/C = larger tumour) 48 % of control [survivor count not shown]; (T/C endpoint: mean tumor weight (est.), dose: 100.0 mg/kg/injection, schedule: Q04DX003 (ip), evaluation day not shown, higher T/C = larger tumour) 27 % of control [survivor count not shown]; (T/C endpoint: mean tumor weight, dose: 25.0 mg/kg/injection, schedule: Q04DX003 (ip), evaluation day not shown, higher T/C = larger tumour) 70 % of control [survivor count not shown]; (T/C endpoint: mean tumor weight, dose: 50.0 mg/kg/injection, schedule: Q04DX003 (ip), evaluation day not shown, higher T/C = larger tumour) 42 % of control [survivor count not shown]; (T/C endpoint: median survival time, dose: 50.0 mg/kg/injection, schedule: Q04DX003 (ip), higher T/C = longer survival) 96 % of control [survivor count not shown]. For the same molecule, the T/C (T/C endpoint: median survival time, dose: 100.0 mg/kg/injection, schedule: Q04DX003 (ip), higher T/C = longer survival) was 108 % of control [survivor count not shown].

Consider `ClCCN(CCCl)c1ccccc1`, for which the T/C is, setting by setting: (T/C endpoint: median survival time, dose: 6.25 mg/kg/injection, schedule: Q01DX011 (ip), higher T/C = longer survival) 120 % of control [survivor count not shown]; (T/C endpoint: median survival time, dose: 12.5 mg/kg/injection, schedule: Q01DX011 (ip), higher T/C = longer survival) 117 % of control [survivor count not shown]; (T/C endpoint: median survival time, dose: 25.0 mg/kg/injection, schedule: Q01DX011 (ip), higher T/C = longer survival) 120 % of control [survivor count not shown]; (T/C endpoint: median survival time, dose: 50.0 mg/kg/injection, schedule: Q01DX011 (ip), higher T/C = longer survival) 92 % of control [survivor count not shown].
